These are yes or no findings as the source states them, for the method shown.
Biological target: Acanthamoeba polyphaga mimivirus uracil-DNA glycosylase (mvUNG), full length (Acanthamoeba polyphaga mimivirus) (UniProt Q5UPT2)
Assay: SEC-MALS; purified mvUNG on a Superdex-200 analytical column with inline MALLS (miniDAWN TREOS) and refractive index detectors, flow 0.4 mL/min; both purified

Sequences of proteins named here, by UniProt entry; tags and fusion partners are left off.
UniProt Q5UPT2: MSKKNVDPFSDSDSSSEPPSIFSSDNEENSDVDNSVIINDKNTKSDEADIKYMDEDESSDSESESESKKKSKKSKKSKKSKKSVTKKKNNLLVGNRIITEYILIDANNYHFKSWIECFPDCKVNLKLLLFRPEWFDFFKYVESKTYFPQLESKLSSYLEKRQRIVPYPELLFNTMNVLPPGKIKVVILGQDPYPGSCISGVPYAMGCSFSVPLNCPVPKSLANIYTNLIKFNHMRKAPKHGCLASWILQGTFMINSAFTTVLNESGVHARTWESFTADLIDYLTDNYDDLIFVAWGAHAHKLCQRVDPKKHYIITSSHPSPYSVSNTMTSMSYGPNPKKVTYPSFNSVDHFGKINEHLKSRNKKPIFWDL

For “Acanthamoeba polyphaga mimivirus uracil-DNA glycosylase (mvUNG), full length (from UniProt Q5UPT2 1-370) (enzyme)”, the binding was “no binding”.
